Results are given in words; binding and its absence hold for the method and conditions named. In cells and extracts the contact can be indirect. These calls come from enrichment with a bait or labelling near it, and not all partners need be listed. For some of these results: Where a sequence is shown, tags or fusion partners need not be part of it.

T1: MLF2-APEX2-HA (UniProt Q15773)
T1 sequence: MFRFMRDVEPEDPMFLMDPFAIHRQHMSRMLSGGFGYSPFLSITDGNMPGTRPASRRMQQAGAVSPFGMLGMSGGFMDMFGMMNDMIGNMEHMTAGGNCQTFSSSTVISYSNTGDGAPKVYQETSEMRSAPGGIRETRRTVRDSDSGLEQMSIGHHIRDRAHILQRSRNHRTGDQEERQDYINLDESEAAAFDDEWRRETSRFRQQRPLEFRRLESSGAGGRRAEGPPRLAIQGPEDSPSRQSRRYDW

B1: myeloid leukemia factor 2 (MLF2) (protein, UniProt Q15773 1-248)
chain: MFRFMRDVEPEDPMFLMDPFAIHRQHMSRMLSGGFGYSPFLSITDGNMPGTRPASRRMQQAGAVSPFGMLGMSGGFMDMFGMMNDMIGNMEHMTAGGNCQTFSSSTVISYSNTGDGAPKVYQETSEMRSAPGGIRETRRTVRDSDSGLEQMSIGHHIRDRAHILQRSRNHRTGDQEERQDYINLDESEAAAFDDEWRRETSRFRQQRPLEFRRLESSGAGGRRAEGPPRLAIQGPEDSPSRQSRRYDW
B2: Nup133 (protein, UniProt Q8WUM0 1-1156)
chain: MFPAAPSPRTPGTGSRRGPLAGLGPGSTPRTASRKGLPLGSAVSSPVLFSPVGRRSSLSSRGTPTRMFPHHSITESVNYDVKTFGSSLPVKVMEALTLAEVDDQLTINIDEGGWACLVCKEKLIIWKIALSPITKLSVCKELQLPPSDFHWSADLVALSYSSPSGEAHSTQAVAVMVATREGSIRYWPSLAGEDTYTEAFVDSGGDKTYSFLTAVQGGSFILSSSGSQLIRLIPESSGKIHQHILPQGQGMLSGIGRKVSSLFGILSPSSDLTLSSVLWDRERSSFYSLTSSNISKWELDDSSEKHAYSWDINRALKENITDAIWGSESNYEAIKEGVNIRYLDLKQNCDGLVILAAAWHSADNPCLIYYSLITIEDNGCQMSDAVTVEVTQYNPPFQSEDLILCQLTVPNFSNQTAYLYNESAVYVCSTGTGKFSLPQEKIVFNAQGDSVLGAGACGGVPIIFSRNSGLVSITSRENVSILAEDLEGSLASSVAGPNSESMIFETTTKNETIAQEDKIKLLKAAFLQYCRKDLGHAQMVVDELFSSHSDLDSDSELDRAVTQISVDLMDDYPASDPRWAESVPEEAPGFSNTSLIILHQLEDKMKAHSFLMDFIHQVGLFGRLGSFPVRGTPMATRLLLCEHAEKLSAAIVLKNHHSRLSDLVNTAILIALNKREYEIPSNLTPADVFFREVSQVDTICECLLEHEEQVLRDAPMDSIEWAEVVINVNNILKDMLQAASHYRQNRNSLYRREESLEKEPEYVPWTATSGPGGIRTVIIRQHEIVLKVAYPQADSNLRNIVTEQLVALIDCFLDGYVSQLKSVDKSSNRERYDNLEMEYLQKRSDLLSPLLSLGQYLWAASLAEKYCDFDILVQMCEQTDNQSRLQRYMTQFADQNFSDFLFRWYLEKGKRGKLLSQPISQHGQLANFLQAHEHLSWLHEINSQELEKAHATLLGLANMETRYFAKKKTLLGLSKLAALASDFSEDMLQEKIEEMAEQERFLLHQETLPEQLLAEKQLNLSAMPVLTAPQLIGLYICEENRRANEYDFKKALDLLEYIDEEEDININDLKLEILCKALQRDNWSSSDGKDDPIEVSKDSIFVKILQKLLKDGIQLSEYLPEVKDLLQADQLGSLKSNPYFEFVLKANYEYYVQGQI
B3: Nup50 (protein, UniProt Q9UKX7 1-468)
chain: MAKRNAEKELTDRNWDQEDEAEEVGTFSMASEEVLKNRAIKKAKRRNVGFESDTGGAFKGFKGLVVPSGGGRFSGFGSGAGGKPLEGLSNGNNITSAPPFASAKAAADPKVAFGSLAANGPTTLVDKVSNPKTNGDSQQPSSSGLASSKACVGNAYHKQLAALNCSVRDWIVKHVNTNPLCDLTPIFKDYEKYLANIEQQHGNSGRNSESESNKVAAETQSPSLFGSTKLQQESTFLFHGNKTEDTPDKKMEVASEKKTDPSSLGATSASFNFGKKVDSSVLGSLSSVPLTGFSFSPGNSSLFGKDTTQSKPVSSPFPTKPLEGQAEGDSGECKGGDEEENDEPPKVVVTEVKEEDAFYSKKCKLFYKKDNEFKEKGIGTLHLKPTANQKTQLLVRADTNLGNILLNVLIPPNMPCTRTGKNNVLIVCVPNPPIDEKNATMPVTMLIRVKTSEDADELHKILLEKKDA

One assay concerns the target Δ133 ORF10-HA (Kaposi's sarcoma-associated herpesvirus (KSHV)). In words: affinity purification with mass spectrometry.
As for B1, the binding entry is “binds”.

For a further assay, the target named is T1, MLF2-APEX2-HA. In words: proximity labelling.
On to Nup98 (from UniProt P52948 1-880), for which the binding result is recorded as “binds”.

Regarding HSC70 (from UniProt P11142 1-646), the binding entry was “binds”. Still for that read-out and setting: with GP210 (from UniProt Q8TEM1 27-1887) the entry was “binds”.

With HSPA1A (from UniProt P0DMV8 1-641), the binding result is “binds”. B2: the binding result is “binds”. Still for that read-out and setting: with B3 the entry was “binds”.

For the origin of these results see paper doi:10.1101/2021.10.26.465916.
